Measurements from US20050222013A1, “Methods for the use of inhibitors of histone deacetylase as synergistic agents in cancer therapy” (Georgetown University, priority 2003, published 2005).

System: SQ-20B cells
Assay: IC50 determination by clonogenic cell kill (24 hour drug treatment, colonies scored after 2 to 3 weeks)
Assay type: cell-based, human
Conditions: 24 hour treatment
Method: IC50 is defined as the concentration of the HDAC inhibitor that kills 50% of cells following treatment with the drug. To determine the IC50, a series of dilutions of drug is used over a broad range, for example 0-1.6 μg/ml. Approximately 100-400 cells are seeded into T-25 flasks in triplicate and treated with various concentrations of the drug. After a 24 hour treatment, the cells are washed with standard PBS (phosphate buffered saline) solution. Cells are then grown in fresh media for 2 to 3 weeks. Colonies are stained with crystal violet and scored. Concentrations of drugs showing 50% cell death represent the IC50 concentration.

## O=C(CCCCCCC(=O)Nc1ccccc1)NO [SAHA, suberonylanilide hydroxamic acid]
  IC50 (concentration that kills 50% of cells): 0.8 µg/mL
